This passage reports binding results from paper doi:10.1101/423293.

Results are given in words; binding and its absence hold for the method and conditions named. Some entries that bind do so weakly or less than the wild type.

The assay concerns the target T1, HORMAD1 (mouse) (UniProt Q9D5T7).
T1 sequence: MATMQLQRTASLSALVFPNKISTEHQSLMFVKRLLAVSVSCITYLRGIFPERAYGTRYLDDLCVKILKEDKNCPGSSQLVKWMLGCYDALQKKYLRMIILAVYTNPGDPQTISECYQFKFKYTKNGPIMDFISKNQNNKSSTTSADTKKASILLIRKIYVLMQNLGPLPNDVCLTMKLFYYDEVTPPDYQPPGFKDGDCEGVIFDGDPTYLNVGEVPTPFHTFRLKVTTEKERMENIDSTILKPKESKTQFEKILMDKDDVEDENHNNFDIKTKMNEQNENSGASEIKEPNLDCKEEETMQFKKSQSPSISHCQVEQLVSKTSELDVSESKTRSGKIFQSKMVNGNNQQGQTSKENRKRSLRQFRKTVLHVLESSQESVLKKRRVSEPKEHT
Put plainly: two-hybrid.

B1: IHO1 (protein, UniProt Q6PDM4 1-574)
chain: MNFNVWNVKEMLSIPSGSGITKPSNWNNNQTDCSLSDSQFLFGSQFCPENSETLLPSLDAGACLRHPKQTQQNSVDSEPSIFIKYQAKPQLLGGDTKDESLFSLPLPVGKSKGLSKQFEEKKRRATDQSDSETLHSFVSHFPEVINKLQTSVEKTEENLSSRSQSILDSVETIAKTFQETARVQHDLMVESVRDKGSMEQAILEIQRTCAARQAEFMEMKSTLKNLEVLVVEQTKNLQQFCDNLSQLIVPGILEELKKFTSVPQVAGHLKDSTSQTSPSLTQSLHFTRQEKHPSEEPATWQAQEAPAGNPSTSSQRPGECGVWDEGAESGVFQKAALPTDGLHRGDGHVKNKTVPTYCKNWVMTTRSVSNHFSNLPSQRAGNGQGLMAQGASQRDVSKFEARVKNACPEYGPQSMCSFDSLEQSATEQKGRPCRKRRRGKKQQPQRSKRGGLLDRKQGQTSKAACAFIARHHCPQSPVCDPQGPLICWLTPRSSTKSTCHILGGTGETSQTARAAQGNLVQHSQRSSTDSSSQGDQQINWFSDLSLENLEPPQCKKGGTNLLCDPDFDSSDDNF
As for B1, the binding result is given as “binds”.
